From patent EP0209897A2 (Merck & Co., Inc., priority 1985, dated 1987)

Experiment: general procedure: solution-phase peptide synthesis; acyl azide (isoamyl nitrite); EDC/HBT

For “Methyl [N-(N-(N-BOC-2-amino-3-(l-naphthyl)propionyl)-N^im-DNP-histidyl)-1-amino-2-cyclohexylethyl] 2-carbomethoxy-3-cyclohgxylgropylphosphinate”, the step yield (coupling step) was 58%.
With “Methyl [N-(N-(N-BOC-phenylalanyl)-N^im-DNP-histidyl)-I-amino-2-cyclohexylethyl]-2-carbomethoxy-4-methylpentylphosphinate” the step yield (coupling step) was 61%.
In the case of “Methyl [N-(N-(N-CBZ-2-amino-3-(1-naphthyl)propionyl)-N^im-DNP-histidyl)-1-amino-2-cyclohexylethyl]2-carbomethox^y-3-cyclohexylpropylphosphinate”, the step yield (coupling step) is reported as 62%.
In the case of “Methyl [N-(N-(N-CBZ-2-amino-4-phenylbutyryl)-N^im-DNP-histidyl)-1-amino-2-cyclo-heaylethyl] 2-carbo- methoxy-4-methylpentylphosphinate”, the step yield (coupling step) is reported as 38%.
Substance “Methyl [N-(N-(N-CBZ-phenylalanyl)-N^im-DNP-histidyl)-1-amino-2-cyclohezylethyl]-2-carbomethozy-4-methylpentylphosphinate” has a step yield (coupling step) of 55%.
“[N-(N-2-Amino-3-(l-naphthyl)propionyl-histidyl)-l-amino-2-cyclohexylethyl] 2-carboxy-4-methylpentyl- phosphinic acid” gave a step yield (late stage modification step) of 15%.
